# Test results published in the supplement of paper PMC6411743.
# Protein sequences, listed by entry. Tags and fused reporters are not part of them. Lines headed by an entry give the natural chain unless they say otherwise; changes in a name come on top.
# UniProt Q16181: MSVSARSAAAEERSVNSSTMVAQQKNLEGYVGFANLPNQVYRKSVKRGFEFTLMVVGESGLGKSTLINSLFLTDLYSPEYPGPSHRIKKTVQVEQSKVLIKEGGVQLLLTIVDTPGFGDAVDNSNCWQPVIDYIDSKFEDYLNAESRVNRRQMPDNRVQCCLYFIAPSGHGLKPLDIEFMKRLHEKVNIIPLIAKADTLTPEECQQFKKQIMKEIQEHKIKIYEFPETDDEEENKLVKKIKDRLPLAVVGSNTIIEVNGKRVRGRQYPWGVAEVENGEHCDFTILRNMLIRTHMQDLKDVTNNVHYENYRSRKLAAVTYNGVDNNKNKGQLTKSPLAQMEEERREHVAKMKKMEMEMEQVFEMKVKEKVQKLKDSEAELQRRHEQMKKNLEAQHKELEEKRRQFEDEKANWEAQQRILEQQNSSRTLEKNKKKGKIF
# UniProt Q5JVF3: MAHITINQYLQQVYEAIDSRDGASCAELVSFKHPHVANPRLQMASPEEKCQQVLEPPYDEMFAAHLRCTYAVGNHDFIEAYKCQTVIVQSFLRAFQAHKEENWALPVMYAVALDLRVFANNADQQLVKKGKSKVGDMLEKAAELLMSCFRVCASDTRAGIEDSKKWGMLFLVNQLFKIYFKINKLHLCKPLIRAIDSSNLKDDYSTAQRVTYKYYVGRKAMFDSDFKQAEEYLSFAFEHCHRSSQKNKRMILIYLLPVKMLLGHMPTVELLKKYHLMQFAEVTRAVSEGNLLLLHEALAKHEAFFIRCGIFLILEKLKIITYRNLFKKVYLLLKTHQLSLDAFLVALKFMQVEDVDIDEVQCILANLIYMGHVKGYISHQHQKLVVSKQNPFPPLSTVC
# UniProt Q5JSH3: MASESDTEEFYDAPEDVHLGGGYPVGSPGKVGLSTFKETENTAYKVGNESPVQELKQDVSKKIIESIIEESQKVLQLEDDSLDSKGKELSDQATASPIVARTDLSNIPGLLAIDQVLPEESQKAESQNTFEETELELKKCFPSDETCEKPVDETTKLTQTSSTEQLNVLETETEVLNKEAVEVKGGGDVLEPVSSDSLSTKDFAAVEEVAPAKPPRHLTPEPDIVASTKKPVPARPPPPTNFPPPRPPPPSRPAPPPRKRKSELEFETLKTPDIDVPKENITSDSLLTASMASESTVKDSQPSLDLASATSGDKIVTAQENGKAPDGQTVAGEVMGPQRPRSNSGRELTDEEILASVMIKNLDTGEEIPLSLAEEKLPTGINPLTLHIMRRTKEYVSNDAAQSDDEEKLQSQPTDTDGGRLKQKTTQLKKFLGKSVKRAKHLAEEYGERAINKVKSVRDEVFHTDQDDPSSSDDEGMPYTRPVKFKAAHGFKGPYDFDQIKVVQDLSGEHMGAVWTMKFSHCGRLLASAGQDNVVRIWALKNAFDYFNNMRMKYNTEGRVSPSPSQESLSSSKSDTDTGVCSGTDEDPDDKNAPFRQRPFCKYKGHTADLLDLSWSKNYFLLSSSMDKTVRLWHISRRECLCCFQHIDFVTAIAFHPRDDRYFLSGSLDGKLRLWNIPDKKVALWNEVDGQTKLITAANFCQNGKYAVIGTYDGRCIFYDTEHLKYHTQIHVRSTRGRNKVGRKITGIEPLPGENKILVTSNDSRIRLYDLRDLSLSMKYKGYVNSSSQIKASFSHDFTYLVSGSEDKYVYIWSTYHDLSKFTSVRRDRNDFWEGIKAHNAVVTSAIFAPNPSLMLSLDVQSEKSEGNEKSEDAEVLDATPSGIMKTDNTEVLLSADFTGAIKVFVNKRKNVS
# UniProt Q16666: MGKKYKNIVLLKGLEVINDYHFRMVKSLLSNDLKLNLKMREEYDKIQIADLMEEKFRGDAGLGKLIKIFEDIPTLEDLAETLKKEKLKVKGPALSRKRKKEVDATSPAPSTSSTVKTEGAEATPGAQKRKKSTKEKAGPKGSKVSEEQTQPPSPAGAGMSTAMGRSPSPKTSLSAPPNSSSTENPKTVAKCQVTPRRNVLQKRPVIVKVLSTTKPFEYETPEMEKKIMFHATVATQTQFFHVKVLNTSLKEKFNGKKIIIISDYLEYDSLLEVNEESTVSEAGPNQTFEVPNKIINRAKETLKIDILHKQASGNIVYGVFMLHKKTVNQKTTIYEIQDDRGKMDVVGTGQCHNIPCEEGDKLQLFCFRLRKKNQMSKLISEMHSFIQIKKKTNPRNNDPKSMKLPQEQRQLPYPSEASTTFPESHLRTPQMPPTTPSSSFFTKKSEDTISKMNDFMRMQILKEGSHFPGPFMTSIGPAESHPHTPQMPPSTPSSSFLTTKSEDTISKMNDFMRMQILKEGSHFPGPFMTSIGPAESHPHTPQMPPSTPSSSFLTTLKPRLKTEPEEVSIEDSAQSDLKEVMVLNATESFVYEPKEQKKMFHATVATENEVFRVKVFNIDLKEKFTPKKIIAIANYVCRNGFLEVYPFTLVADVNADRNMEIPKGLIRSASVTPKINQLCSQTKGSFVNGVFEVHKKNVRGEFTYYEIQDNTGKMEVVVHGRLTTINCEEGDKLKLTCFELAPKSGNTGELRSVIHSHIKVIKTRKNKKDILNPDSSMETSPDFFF
# UniProt Q17R31: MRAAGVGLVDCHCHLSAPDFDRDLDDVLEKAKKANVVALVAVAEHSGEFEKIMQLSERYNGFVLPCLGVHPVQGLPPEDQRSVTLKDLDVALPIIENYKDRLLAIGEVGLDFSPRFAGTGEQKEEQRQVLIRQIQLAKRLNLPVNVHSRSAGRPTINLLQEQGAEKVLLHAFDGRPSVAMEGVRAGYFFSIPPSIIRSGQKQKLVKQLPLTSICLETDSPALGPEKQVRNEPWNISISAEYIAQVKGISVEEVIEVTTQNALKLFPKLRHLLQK
# UniProt Q4G0J3: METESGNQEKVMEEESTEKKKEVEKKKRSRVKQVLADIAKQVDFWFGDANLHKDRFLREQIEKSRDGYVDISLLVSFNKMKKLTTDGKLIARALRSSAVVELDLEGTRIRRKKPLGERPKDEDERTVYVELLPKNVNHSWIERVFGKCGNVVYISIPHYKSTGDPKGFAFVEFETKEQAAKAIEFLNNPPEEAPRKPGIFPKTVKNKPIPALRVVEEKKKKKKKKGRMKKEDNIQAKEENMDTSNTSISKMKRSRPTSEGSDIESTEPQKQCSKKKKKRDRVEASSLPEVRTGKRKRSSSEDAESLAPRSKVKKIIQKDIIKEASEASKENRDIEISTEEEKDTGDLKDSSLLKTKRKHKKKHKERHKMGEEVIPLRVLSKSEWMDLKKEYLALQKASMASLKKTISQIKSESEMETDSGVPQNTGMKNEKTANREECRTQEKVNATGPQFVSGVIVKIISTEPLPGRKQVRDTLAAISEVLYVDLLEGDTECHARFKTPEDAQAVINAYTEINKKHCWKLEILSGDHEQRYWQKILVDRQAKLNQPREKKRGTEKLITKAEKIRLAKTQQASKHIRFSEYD
# UniProt Q1ED39: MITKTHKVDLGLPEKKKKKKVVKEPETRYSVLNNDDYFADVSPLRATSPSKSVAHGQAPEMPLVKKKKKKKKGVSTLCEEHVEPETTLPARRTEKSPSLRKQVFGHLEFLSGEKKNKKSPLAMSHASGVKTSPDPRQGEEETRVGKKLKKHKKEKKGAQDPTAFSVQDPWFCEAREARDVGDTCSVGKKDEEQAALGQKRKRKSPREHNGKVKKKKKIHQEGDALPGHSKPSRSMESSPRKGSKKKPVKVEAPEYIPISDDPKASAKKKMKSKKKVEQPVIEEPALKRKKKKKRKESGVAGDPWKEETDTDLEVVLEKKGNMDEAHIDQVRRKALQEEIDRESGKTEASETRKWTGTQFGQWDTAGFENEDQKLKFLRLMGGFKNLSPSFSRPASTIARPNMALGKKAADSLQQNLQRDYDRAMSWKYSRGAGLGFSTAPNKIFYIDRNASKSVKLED
# UniProt Q15717, whole entry: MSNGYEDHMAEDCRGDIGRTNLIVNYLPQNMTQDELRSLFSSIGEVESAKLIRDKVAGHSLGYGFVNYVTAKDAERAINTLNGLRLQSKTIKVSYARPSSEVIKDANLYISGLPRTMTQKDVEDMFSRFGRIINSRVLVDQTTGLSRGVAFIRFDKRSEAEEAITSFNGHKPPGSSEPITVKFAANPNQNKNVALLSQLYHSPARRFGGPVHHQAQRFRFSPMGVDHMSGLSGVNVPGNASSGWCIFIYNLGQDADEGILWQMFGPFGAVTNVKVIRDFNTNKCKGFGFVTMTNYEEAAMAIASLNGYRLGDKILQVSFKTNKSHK
# UniProt Q5M775: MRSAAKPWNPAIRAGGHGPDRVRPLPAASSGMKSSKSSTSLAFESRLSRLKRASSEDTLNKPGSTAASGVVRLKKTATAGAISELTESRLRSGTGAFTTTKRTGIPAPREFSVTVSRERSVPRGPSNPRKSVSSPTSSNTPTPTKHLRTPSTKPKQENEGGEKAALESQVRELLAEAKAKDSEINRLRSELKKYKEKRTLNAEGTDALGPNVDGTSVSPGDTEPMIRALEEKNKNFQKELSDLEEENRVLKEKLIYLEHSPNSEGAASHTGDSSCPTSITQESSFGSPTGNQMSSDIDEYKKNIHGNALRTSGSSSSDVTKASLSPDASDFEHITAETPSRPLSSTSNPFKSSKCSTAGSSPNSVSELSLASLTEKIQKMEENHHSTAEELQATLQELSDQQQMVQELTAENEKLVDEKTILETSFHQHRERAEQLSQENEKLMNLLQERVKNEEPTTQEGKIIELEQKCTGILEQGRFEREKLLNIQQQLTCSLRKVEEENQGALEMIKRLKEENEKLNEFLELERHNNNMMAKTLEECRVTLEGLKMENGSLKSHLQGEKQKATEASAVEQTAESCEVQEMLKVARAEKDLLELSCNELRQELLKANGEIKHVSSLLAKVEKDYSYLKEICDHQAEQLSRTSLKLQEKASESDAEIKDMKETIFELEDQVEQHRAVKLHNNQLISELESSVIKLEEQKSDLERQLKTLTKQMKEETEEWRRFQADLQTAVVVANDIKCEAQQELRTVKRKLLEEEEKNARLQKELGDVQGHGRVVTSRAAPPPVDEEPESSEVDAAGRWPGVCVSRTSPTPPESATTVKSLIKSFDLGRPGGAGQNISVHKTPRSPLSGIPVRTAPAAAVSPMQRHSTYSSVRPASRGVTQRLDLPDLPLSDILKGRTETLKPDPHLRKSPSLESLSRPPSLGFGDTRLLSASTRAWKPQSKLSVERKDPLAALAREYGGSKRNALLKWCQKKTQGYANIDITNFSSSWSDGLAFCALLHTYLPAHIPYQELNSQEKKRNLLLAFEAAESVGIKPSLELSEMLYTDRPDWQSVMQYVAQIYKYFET
# UniProt Q2NKX8: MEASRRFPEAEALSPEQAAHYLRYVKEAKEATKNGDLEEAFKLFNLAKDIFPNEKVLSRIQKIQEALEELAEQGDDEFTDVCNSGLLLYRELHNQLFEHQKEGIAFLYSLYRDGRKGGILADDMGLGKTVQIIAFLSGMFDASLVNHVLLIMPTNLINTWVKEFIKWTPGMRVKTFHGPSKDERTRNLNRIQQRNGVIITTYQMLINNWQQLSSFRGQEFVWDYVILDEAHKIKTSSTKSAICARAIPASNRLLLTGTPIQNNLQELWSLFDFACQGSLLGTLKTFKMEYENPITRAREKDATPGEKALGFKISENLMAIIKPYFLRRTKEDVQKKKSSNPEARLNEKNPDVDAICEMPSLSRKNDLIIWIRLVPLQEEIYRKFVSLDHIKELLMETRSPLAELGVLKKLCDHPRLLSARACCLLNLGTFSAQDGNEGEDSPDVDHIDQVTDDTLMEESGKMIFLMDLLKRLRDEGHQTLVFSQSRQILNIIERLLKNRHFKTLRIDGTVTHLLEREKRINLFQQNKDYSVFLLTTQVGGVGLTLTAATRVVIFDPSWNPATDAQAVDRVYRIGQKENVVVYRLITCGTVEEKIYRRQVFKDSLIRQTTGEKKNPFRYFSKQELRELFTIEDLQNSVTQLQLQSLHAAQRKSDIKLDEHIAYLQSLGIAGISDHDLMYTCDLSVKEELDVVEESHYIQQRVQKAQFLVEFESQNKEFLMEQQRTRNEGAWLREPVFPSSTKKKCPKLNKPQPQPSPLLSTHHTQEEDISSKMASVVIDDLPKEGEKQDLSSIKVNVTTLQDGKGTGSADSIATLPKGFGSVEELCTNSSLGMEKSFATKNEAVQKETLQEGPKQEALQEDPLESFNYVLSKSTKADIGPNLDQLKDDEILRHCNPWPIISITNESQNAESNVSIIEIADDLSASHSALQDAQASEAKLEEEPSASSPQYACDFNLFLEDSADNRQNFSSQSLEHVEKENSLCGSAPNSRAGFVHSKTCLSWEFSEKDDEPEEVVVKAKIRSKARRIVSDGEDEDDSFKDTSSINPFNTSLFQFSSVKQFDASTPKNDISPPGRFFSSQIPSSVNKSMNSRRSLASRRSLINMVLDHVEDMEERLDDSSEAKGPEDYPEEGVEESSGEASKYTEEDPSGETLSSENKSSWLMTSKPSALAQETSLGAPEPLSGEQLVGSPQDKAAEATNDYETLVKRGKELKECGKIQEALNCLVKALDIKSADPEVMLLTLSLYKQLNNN
# ± gives the standard deviation of the averaged measurements. The entries are a selection whose mix differs from that of the whole data set.
# Compound: Nc1ncnc2c1ncn2[C@@H]1O[C@H](COP(=O)(O)OP(=O)(O)NP(=O)(O)O)[C@@H](O)[C@H]1O [adenylyl imidodiphosphate]
# Experiment: NP40-soluble protein abundance relative to vehicle (solubility fold change) (ratio); higher = more soluble protein in presence of AMP-PNP
# Summary of the method: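 Across three independent experiments, values are fold changes against the detergent-processed vehicle for each replicate, based on vsn-normalised intensities. The samples were Jurkat crude lysate treated with eight concentrations (0.1 to 10 mM) for 10 min at room temperature and then 3 min at 37 °C. Lysate was solubilised with 0.8% NP40 and benzonase, ultracentrifuged, and the supernatant analysed by TMT-labelled LC-MS/MS.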
Target,NP40-soluble protein abundance (concentration: 1mM),NP40-soluble protein abundance (concentration: 2mM),NP40-soluble protein abundance (concentration: 4mM),NP40-soluble protein abundance (concentration: 6mM),NP40-soluble protein abundance (concentration: 8mM),NP40-soluble protein abundance (concentration: 10mM)
UniProt Q4KMQ2 and related entries,1.02 ± 0.032,1.03 ± 0.067,1.01 ± 0.041,1.02 ± 0.034,1.01 ± 0.016,0.999 ± 0.036
UniProt Q16181 and related entries,0.9998 ± 0.0071,0.986 ± 0.021,0.963 ± 0.025,1 ± 0.0094,0.976 ± 0.031,0.98 ± 0.038
UniProt Q5JVF3 and related entries,0.974 ± 0.022,0.937 ± 0.041,0.942 ± 0.039,0.967 ± 0.025,0.989 ± 0.025,0.973 ± 0.022
HP1BP3 (UniProt Q5SSJ5),0.963 ± 0.042,1.06 ± 0.063,1.03 ± 0.065,1.16 ± 0.017,1.18 ± 0.069,1.39 ± 0.15
UniProt Q5JSH3 and related entries,1.02 ± 0.011,1.07 ± 0.071,1.03 ± 0.022,0.995 ± 0.027,0.974 ± 0.042,0.984 ± 0.029
UniProt Q16666 and related entries,1.06 ± 0.052,1.11 ± 0.023,1.22 ± 0.069,1.43 ± 0.14,1.49 ± 0.14,1.53 ± 0.19
UniProt Q16222 and related entries,0.972 ± 0.016,0.943 ± 0.071,0.976 ± 0.021,0.981 ± 0.033,0.988 ± 0.04,0.975 ± 0.041
UniProt Q17R31 and related entries,1.04 ± 0.011,1.06 ± 0.047,1.09 ± 0.034,1.038 ± 0.0053,1.05 ± 0.021,1.1 ± 0.07
Q5QPA5 and related entries (UniProt Q9NVS2),1.01 ± 0.091,0.992 ± 0.058,0.963 ± 0.12,0.927 ± 0.15,0.929 ± 0.14,0.939 ± 0.14
C5orf22 (UniProt Q49AR2),1.02 ± 0.015,1.02 ± 0.014,1.05 ± 0.017,0.983 ± 0.013,0.978 ± 0.041,1 ± 0.023
UniProt Q4G0J3 and related entries,1.02 ± 0.055,1.07 ± 0.025,1.13 ± 0.044,1.18 ± 0.052,1.16 ± 0.033,1.29 ± 0.038
GRIPAP1 (UniProt Q4V328),1.02 ± 0.013,1.08 ± 0.091,1.03 ± 0.037,0.985 ± 0.015,0.962 ± 0.021,0.976 ± 0.058
UniProt Q1ED39,1.03 ± 0.031,1.08 ± 0.078,1.07 ± 0.028,1.101 ± 0.008,1.12 ± 0.017,1.18 ± 0.068
ELAVL1 (UniProt Q15717),0.939 ± 0.027,0.903 ± 0.043,0.934 ± 0.017,1.01 ± 0.048,1.02 ± 0.033,0.979 ± 0.031
Q5JQQ4 and related entries (UniProt Q9BVM2),1.03 ± 0.021,0.995 ± 0.068,1.04 ± 0.035,1.006 ± 0.0038,1.06 ± 0.099,1.02 ± 0.032
UniProt Q5M775 and related entries,0.945 ± 0.062,0.89 ± 0.032,0.95 ± 0.05,1.04 ± 0.032,1.01 ± 0.031,0.992 ± 0.059
CCDC6 (UniProt Q16204),0.993 ± 0.023,1.06 ± 0.037,0.979 ± 0.041,0.957 ± 0.024,0.9475 ± 0.0034,0.916 ± 0.027
UniProt Q5T3F8 and related entries,1 ± 0.052,1.06 ± 0.1,1.01 ± 0.038,1.01 ± 0.019,0.985 ± 0.042,1.01 ± 0.049
RALBP1 (UniProt Q15311),0.982 ± 0.037,1.01 ± 0.024,1.03 ± 0.025,1.04 ± 0.014,1.04 ± 0.014,1.08 ± 0.011
CROCC (UniProt Q5TZA2),0.9823 ± 0.0093,1.03 ± 0.037,0.977 ± 0.032,0.9698 ± 0.0079,0.949 ± 0.013,0.932 ± 0.028
CAMK4 (UniProt Q16566),1.03 ± 0.025,1.05 ± 0.053,1.05 ± 0.017,1.02 ± 0.021,1.04 ± 0.017,1.03 ± 0.049
UniProt Q5JWR5 and related entries,0.986 ± 0.038,0.977 ± 0.012,0.937 ± 0.023,0.969 ± 0.035,0.954 ± 0.028,0.928 ± 0.013
UniProt Q15149 and related entries,1.04 ± 0.018,1.04 ± 0.033,1.05 ± 0.028,0.99 ± 0.011,0.954 ± 0.06,0.972 ± 0.046
Q5T1J5 and related entries (UniProt Q9Y6H1+Q5T1J5),1.03 ± 0.013,1.04 ± 0.097,1.02 ± 0.033,0.929 ± 0.031,0.966 ± 0.014,0.946 ± 0.015
HSP90AB4P (UniProt Q58FF6),1.04 ± 0.05,1.04 ± 0.043,1.03 ± 0.03,1.01 ± 0.023,1 ± 0.057,1.03 ± 0.051
ERCC6L (UniProt Q2NKX8),0.998 ± 0.022,1.01 ± 0.036,0.993 ± 0.04,0.95 ± 0.032,0.942 ± 0.045,0.949 ± 0.064
DNAL1 (UniProt Q4LDG9),0.981 ± 0.029,1.05 ± 0.013,0.988 ± 0.078,0.943 ± 0.048,0.932 ± 0.029,0.913 ± 0.066
UniProt Q15796 and related entries,1.02 ± 0.024,1.03 ± 0.027,0.985 ± 0.029,1.04 ± 0.029,1.03 ± 0.062,1.06 ± 0.082
TBC1D10B (UniProt Q4KMP7),0.968 ± 0.043,0.981 ± 0.028,0.991 ± 0.029,0.978 ± 0.024,0.964 ± 0.069,0.955 ± 0.041
UniProt Q16512 and related entries,1.013 ± 0.01,1.01 ± 0.018,1.012 ± 0.0097,1.04 ± 0.054,1.03 ± 0.041,1.06 ± 0.038

# Some of the entries so far, as tab-separated lines.
Target	NP40-soluble protein abundance (concentration: 1mM)	NP40-soluble protein abundance (concentration: 2mM)	NP40-soluble protein abundance (concentration: 4mM)	NP40-soluble protein abundance (concentration: 6mM)	NP40-soluble protein abundance (concentration: 8mM)	NP40-soluble protein abundance (concentration: 10mM)
UniProt Q16666 and related entries	1.06 ± 0.052	1.11 ± 0.023	1.22 ± 0.069	1.43 ± 0.14	1.49 ± 0.14	1.53 ± 0.19
UniProt Q16222 and related entries	0.972 ± 0.016	0.943 ± 0.071	0.976 ± 0.021	0.981 ± 0.033	0.988 ± 0.04	0.975 ± 0.041
